This passage reports binding results from article PMC4273968.

No constants are given. Whether binding was seen depends on the method and setting. In cells and extracts the contact can be indirect. Some binding calls cover weakened binding; strength is not graded here. Where a sequence is shown, tags or fusion partners need not be part of it.

The experiment concerns the target T1, myc-tagged C160, the largest subunit of Pol III (S. cerevisiae) (UniProt P04051).
T1 sequence: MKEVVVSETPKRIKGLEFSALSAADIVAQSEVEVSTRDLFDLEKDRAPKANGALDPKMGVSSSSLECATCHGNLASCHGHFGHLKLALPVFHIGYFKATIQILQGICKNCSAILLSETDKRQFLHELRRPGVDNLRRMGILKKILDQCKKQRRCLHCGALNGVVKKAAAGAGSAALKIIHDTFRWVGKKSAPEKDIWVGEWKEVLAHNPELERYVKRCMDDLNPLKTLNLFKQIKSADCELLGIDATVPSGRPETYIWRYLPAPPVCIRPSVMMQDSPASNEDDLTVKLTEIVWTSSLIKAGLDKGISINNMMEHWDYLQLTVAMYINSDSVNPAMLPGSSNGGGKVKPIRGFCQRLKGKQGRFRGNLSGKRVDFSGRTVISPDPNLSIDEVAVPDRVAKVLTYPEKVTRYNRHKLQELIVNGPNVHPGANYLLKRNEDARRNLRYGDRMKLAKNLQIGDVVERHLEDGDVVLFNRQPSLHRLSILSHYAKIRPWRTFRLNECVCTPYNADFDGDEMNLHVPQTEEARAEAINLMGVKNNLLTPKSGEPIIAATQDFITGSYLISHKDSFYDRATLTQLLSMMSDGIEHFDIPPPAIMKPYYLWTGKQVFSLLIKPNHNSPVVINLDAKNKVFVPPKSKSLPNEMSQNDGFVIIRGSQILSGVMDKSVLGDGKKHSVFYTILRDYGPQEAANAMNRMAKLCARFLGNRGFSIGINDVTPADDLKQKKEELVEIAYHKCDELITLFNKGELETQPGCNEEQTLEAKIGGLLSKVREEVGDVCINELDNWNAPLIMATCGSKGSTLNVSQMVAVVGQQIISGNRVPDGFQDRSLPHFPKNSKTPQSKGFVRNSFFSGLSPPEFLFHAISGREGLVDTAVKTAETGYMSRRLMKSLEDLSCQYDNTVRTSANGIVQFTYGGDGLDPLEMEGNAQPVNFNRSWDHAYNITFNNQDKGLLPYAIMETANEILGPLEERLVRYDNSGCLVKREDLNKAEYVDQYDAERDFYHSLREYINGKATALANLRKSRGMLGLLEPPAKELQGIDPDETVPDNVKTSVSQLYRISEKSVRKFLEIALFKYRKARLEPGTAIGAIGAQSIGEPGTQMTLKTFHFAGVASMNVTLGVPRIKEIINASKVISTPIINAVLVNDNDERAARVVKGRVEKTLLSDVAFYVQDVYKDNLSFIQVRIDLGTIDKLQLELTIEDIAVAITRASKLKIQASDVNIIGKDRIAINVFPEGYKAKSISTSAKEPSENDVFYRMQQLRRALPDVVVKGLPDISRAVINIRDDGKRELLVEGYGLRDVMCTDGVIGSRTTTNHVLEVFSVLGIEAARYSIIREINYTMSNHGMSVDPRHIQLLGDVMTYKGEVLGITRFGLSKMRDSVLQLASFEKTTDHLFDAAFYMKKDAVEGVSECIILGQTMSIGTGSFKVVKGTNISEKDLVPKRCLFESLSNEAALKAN
Kind of experiment: co-IP; protein extracts of cells expressing C160-13myc, with (WT) or without Sub1 (sub1Δ), grown in YPD: exponential phase, day1 and day5 stationary phase, 0.25 h to 6 h after inoculation into fresh medium; magnetic beads coated with anti-myc; immunoblot with anti-myc or anti-Maf1.

B1: Maf1 (protein, UniProt P41910 1-395)
chain: MKFIDELDIERVNQTLNFETNDCKIVGSCDIFTTKAVASDRKLYKTIDQHLDTILQENENYNATLQQQLAAPETNQSPCSSPFYSNRRDSNSFWEQKRRISFSEYNSNNNTNNSNGNSSNNNNYSGPNGSSPATFPKSAKLNDQNLKELVSNYDSGSMSSSSLDSSSKNDERIRRRSSSSISSFKSGKSSNNNYSSGTATNNVNKRRKSSINERPSNLSLGPFGPINEPSSRKIFAYLIAILNASYPDHDFSSVEPTDFVKTSLKTFISKFENTLYSLGRQPEEWVWEVINSHMTLSDCVLFQYSPSNSFLEDEPGYLWNLIGFLYNRKRKRVAYLYLICSRLNSSTGEVEDALAKKPQGKLIIDDGSNEYEGEYDFTYDENVIDDKSDQEESLQ
B1: the binding result was “binds”.
